In patent publication US9670249B2, “Amphiphilic peptides and hydrogel matrices thereof for bone repair” (Ben-Gurion University of the Negev Research and Development …, priority 2006, dated 2017):
Not every detail of the peptide structures is certain; ends, links or a residue may be inferred. No end group written: not given here.

Assay: TEM image of hydrogel fibers
Type: physicochemical
Conditions: 4% weight, hydrogel at pH=~4.5

Question: For PDLDLDLDLDLDP [PLD-13, PD(LD)5P], which “Fiber width (TEM)” value is on record?
Answer: The value was roughly 10 nm.
